According to article PMC4811778 (eLife, 2016):
No constants are given. Whether binding was seen depends on the method and setting. Binding seen in cells or lysates may run through a third protein. Some results given as binding are weak or reduced against the parent protein; the word gives no strength. For part of these data: Where a sequence is shown, tags or fusion partners need not be part of it.

T1: exosome catalytic subunit Rrp44 (Saccharomyces cerevisiae) (UniProt Q08162)
T1 sequence: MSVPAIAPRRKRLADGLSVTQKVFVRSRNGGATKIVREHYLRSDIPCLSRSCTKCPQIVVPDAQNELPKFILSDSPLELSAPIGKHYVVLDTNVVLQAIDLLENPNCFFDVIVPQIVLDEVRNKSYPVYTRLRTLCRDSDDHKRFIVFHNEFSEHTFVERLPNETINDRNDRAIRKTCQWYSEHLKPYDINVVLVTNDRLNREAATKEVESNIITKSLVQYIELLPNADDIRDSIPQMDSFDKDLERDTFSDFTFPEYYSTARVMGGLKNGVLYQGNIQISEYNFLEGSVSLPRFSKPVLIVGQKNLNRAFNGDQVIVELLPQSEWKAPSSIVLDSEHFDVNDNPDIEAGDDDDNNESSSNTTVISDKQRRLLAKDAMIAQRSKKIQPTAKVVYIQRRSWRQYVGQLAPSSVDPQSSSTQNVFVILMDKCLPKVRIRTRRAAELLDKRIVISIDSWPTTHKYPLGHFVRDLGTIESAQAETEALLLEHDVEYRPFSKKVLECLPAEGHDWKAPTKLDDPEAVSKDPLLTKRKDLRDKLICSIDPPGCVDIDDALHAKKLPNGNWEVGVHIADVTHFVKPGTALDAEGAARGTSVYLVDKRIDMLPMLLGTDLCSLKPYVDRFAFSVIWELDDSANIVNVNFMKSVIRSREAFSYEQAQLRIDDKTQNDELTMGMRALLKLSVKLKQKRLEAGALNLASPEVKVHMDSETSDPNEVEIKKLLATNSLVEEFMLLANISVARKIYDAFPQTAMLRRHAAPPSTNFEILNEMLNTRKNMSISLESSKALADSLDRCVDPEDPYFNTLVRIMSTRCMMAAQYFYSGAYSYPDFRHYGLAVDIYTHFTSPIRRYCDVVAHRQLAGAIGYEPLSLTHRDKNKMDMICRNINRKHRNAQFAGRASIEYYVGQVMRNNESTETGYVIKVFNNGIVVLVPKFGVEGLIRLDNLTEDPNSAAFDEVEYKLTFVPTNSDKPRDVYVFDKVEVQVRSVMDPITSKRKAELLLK

T2: exosome subunit Rrp4 (Saccharomyces cerevisiae) (UniProt P38792)
T2 sequence: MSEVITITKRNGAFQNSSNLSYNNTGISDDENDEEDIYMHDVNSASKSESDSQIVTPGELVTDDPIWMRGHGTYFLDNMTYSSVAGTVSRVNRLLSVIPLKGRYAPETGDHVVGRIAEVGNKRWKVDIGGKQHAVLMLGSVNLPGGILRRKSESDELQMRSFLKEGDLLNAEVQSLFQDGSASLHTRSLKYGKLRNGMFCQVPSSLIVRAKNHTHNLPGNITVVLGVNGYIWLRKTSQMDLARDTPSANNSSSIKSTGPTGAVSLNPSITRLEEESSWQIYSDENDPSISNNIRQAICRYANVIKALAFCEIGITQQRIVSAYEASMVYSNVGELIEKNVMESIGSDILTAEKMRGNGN

T3: TAP-tagged yeast exosome subunit Rrp46 (Saccharomyces cerevisiae) (UniProt P53256)
T3 sequence: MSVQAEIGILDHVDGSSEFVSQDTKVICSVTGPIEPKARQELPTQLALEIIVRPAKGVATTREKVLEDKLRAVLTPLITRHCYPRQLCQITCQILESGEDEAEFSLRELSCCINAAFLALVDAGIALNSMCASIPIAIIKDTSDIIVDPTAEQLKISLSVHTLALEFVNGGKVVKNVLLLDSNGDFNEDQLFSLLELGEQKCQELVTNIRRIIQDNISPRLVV

T4: ElaB (E. coli) (UniProt P0AEH5)
T4 sequence: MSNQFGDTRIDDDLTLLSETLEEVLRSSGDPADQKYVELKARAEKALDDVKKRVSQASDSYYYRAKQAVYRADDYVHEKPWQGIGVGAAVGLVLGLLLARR


Legend:
[1] = target: T1, exosome catalytic subunit Rrp44 (Saccharomyces cerevisiae); assay: cross-linking; crude Rrp46 immunoprecipitate eluted off IgG beads, 20 mM HEPES pH 8.0, 150 mM NaCl, 40 µg protein treated with Leiker (bAL2) at RT for 1 hr; streptavidin enrichment, LC-MS/MS, pLink
[2] = target: T2, exosome subunit Rrp4 (Saccharomyces cerevisiae); assay: as above
[3] = target: T3, TAP-tagged yeast exosome subunit Rrp46 (Saccharomyces cerevisiae); assay: as above
[4] = target: T4, ElaB (E. coli); assay: cross-linking; quantitative CXMS: log phase and stationary phase E. coli (MG1665) lysates (100 µg each, 50 mM HEPES pH 8.0, 150 mM NaCl) cross-linked with [d0]-/[d6]-bAL2 at RT for 1 hr, forward and reverse labelling; pLink, pQuant

Row | binding [2] | binding [3] | Binder | further results
1 | binds | – | translation initiation factor Tif1 (protein, UniProt P10081 1-395) MSEGITDIEESQIQTNYDKVVYKFDDMELDENLLRGVFGYGFEEPSAIQQRAIMPIIEGHDVLAQAQSGTGKTGTFSIAALQRIDTSVKAPQALMLAPTRELALQIQKVVMALAFHMDIKVHACIGGTSFVEDAEGLRDAQIVVGTPGRVFDNIQRRRFRTDKIKMFILDEADEMLSSGFKEQIYQIFTLLPPTTQVVLLSATMPNDVLEVTTKFMRNPVRILVKKDELTLEGIKQFYVNVEEEEYKYECLTDLYDSISVTQAVIFCNTRRKVEELTTKLRNDKFTVSAIYSDLPQQERDTIMKEFRSGSSRILISTDLLARGIDVQQVSLVINYDLPANKENYIHRIGRGGRFGRKGVAINFVTNEDVGAMRELEKFYSTQIEELPSDIATLLN | binding [1]: binds
2 | – | binds | exosome subunit Rrp41 (protein, UniProt P46948 1-246) MSRLEIYSPEGLRLDGRRWNELRRFESSINTHPHAADGSSYMEQGNNKIITLVKGPKEPRLKSQMDTSKALLNVSVNITKFSKFERSKSSHKNERRVLEIQTSLVRMFEKNVMLNIYPRTVIDIEIHVLEQDGGIMGSLINGITLALIDAGISMFDYISGISVGLYDTTPLLDTNSLEENAMSTVTLGVVGKSEKLSLLLVEDKIPLDRLENVLAIGIAGAHRVRDLMDEELRKHAQKRVSNASAR | –
3 | – | binds | exosome subunit Rrp45 (protein, UniProt Q05636 1-305) MAKDIEISASESKFILEALRQNYRLDGRSFDQFRDVEITFGKEFGDVSVKMGNTKVHCRISCQIAQPYEDRPFEGLFVISTEISPMAGSQFENGNITGEDEVLCSRIIEKSVRRSGALDVEGLCIVAGSKCWAVRADVHFLDCDGGFIDASCIAVMAGLMHFKKPDITVHGEQIIVHPVNEREPVPLGILHIPICVTFSFFNPQDTEENIKGETNSEISIIDATLKEELLRDGVLTVTLNKNREVVQVSKAGGLPMDALTLMKCCHEAYSIIEKITDQILQLLKEDSEKRNKYAAMLTSENAREI | –
4 | – | – | YqjD (natural protein, E. coli, UniProt P64581 1-101, looked up, source: endogenous, E. coli (MG1665) lysate, log phase and stationary phase) MSKEHTTEHLRAELKSLSDTLEEVLSSSGEKSKEELSKIRSKAEQALKQSRYRLGETGDAIAKQTRVAAARADEYVRENPWTGVGIGAAIGVVLGVLLSRR | binding [4]: binds
5 | binds | – | Ski7 (protein, UniProt Q08491 1-747) MSLLEQLARKRIEKSKGLLSADQSHSTSKSASLLERLHKNRETKDNNAETKRKDLKTLLAKDKVKRSDFTPNQHSVSLSLKLSALKKSNSDLEKQGKSVTLDSKENELPTKRKSPDDKLNLEESWKAIKEMNHYCFLKNDPCINQTDDFAFTNFIIKDKKNSLSTSIPLSSQNSSFLSLKKHNNELLGIFVPCNLPKTTRKVAIENFNRPSPDDIIQSAQLNAFNEKLENLNIKSVPKAEKKEPINLQTPPTESIDIHSFIATHPLNLTCLFLGDTNAGKSTLLGHLLYDLNEISMSSMRELQKKSSNLDPSSSNSFKVILDNTKTERENGFSMFKKVIQVENDLLPPSSTLTLIDTPGSIKYFNKETLNSILTFDPEVYVLVIDCNYDSWEKSLDGPNNQIYEILKVISYLNKNSACKKHLIILLNKADLISWDKHRLEMIQSELNYVLKENFQWTDAEFQFIPCSGLLGSNLNKTENITKSKYKSEFDSINYVPEWYEGPTFFSQLYLLVEHNMNKIETTLEEPFVGTILQSSVLQPIAEINYVSLKVLINSGYIQSGQTIEIHTQYEDFHYYGIVSRMKNSKQILETNTKNNISVGLNPDILEVLVKIHNTEDFTKKQFHIRKGDIIIHSRKTNTLSPNLPNTLKLLALRLIKLSIQTHALSDPVDLGSELLLYHNLTHNAVKLVKILGTNDISINPNQSLIVEVEIIEPDFALNVIDSKYITNNIVLTSIDHKVIAVGRIACQ | –
